PubChem BioAssay AID493014 (National Center for Advancing Translational Sciences (NCATS), 2011)
Values joined by “and” are separate entries in the source; they are usually repeats but may differ in a detail not shown here. Equal values may be shown once. Some of the results follow. Shown are side measurements of this screen, not its main read-out; they come without a call. Compounds called inactive in the main read-out are mostly missing here. Potencies come from curve fits of mixed quality, noted in brackets.

Assay: qHTS Assay to Find Inhibitors of Chronic Active B-Cell Receptor Signaling
Settings: ABC-DLBCL IkBa-CBG/CBR reporter, luminescence ratio (green luciferase fused to IkBa over red control in TMD8 lymphoma cells), 4 h
Method in brief: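 Compounds up to 46 uM were incubated four hours with TMD8 cells whose green CBG68 luciferase is fused to IkappaBalpha; red CBR luminescence normalised the signal, and concentration-effect curves were fitted to fusion, red and ratio data.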

[1] = measured here: CBR red luminescence, cell number
[2] = measured here: IkBa-CBG green luminescence

c1ccc(-n2nnnc2NC2CCCCCC2)cc1
AC50 [1]: 0.0651 µM [falling, full curve, poor fit]

O=C(Nc1ccc2nc3n(c(=O)c2c1)CCCCC3)c1c(F)ccc([N+](=O)[O-])c1F
AC50 [1]: 3.16 µM [falling, full curve]

O=c1c2cc(Cl)ccc2[nH]c(=S)n1Cc1ccco1
AC50 [1]: 0.731 µM [falling, full curve, poor fit]

COc1ccc(S(=O)(=O)Nc2ccc(O)c3ccccc23)cc1
AC50 [1]: 25.9 µM [falling, partial curve]

O=C(COc1ccc(F)cc1Cl)NC1CCCCCC1
AC50 [1]: 29.1 µM [rising, single point]

Cn1c(O)c(C=Nc2ccc(Br)cc2)sc1=O
AC50 [1]: 0.631 µM [rising, full curve]

COc1ccc2nc(NC(=O)c3cccs3)sc2c1
AC50 [1]: 0.562 µM [falling, full curve]

COCCCNC(=O)Cn1c(=O)n(Cc2ccc(F)cc2)c(=O)c2sccc21
AC50 [1]: 3.16 µM [rising, partial curve, poor fit]

Cc1nn(C)c(=O)c(N)c1-c1cc(-c2ccc(Cl)c(Cl)c2)n[nH]1
AC50 [1]: 20 µM [rising, partial curve, poor fit]

O=C(Cn1cnc([N+](=O)[O-])n1)NCCc1ccccc1
AC50 [1]: 6.31 µM [rising, single point]

Cc1ccc(NCc2ccccc2)cc1
AC50 [1]: 35.5 µM [rising, single point]

Oc1cc(-c2cccnc2)cc2cccnc12
AC50 [1]: 580 nM [rising, full curve, poor fit] and 2.06 µM [falling, partial curve, poor fit]
AC50 [2]: 1.46 µM [falling, partial curve, poor fit]

O=[N+]([O-])c1ccc(N2CCCCC2)cc1
AC50 [1]: 1 µM [rising, full curve, poor fit]

COc1cccc(NC(=O)CSC2=Nc3ccccc3C3=NC(CC(=O)NCc4ccc5c(c4)OCO5)C(=O)N23)c1 (stereo unspecified)
AC50 [1]: 25.1 µM [falling, single point]

CC(=O)OC1COC(OC2C(O)C(C)OC(OC3C(OC4CCC5(C)C(CCC6(C)C5CC=C5C7CC(C)(C)CCC7(C(=O)O)CCC56C)C4(C)CO)OCC(O)C3O)C2O)C(O)C1OC(C)=O (stereo unspecified)
AC50 [1]: 14.1 µM [falling, partial curve, poor fit]
AC50 [2]: 25.1 µM [rising, partial curve, poor fit]

Cc1ccc(-n2nnnc2SCC(=O)N2CCCCC2)cc1
AC50 [1]: 13 µM [rising, partial curve, poor fit]

CCCn1cnc2cc(NCc3ccccc3O)ccc21
AC50 [1]: 20 µM [falling, single point]

O=C(CN1C(=O)/C(=C\c2cccc(Cl)c2)Oc2ccccc21)N1CCN(c2ccccn2)CC1
AC50 [1]: 4.47 µM [rising, full curve]

Cc1ccc(OC(=O)COc2ccccc2C)c(-n2nc3ccccc3n2)c1
AC50 [1]: 3.66 µM [rising, full curve, poor fit]

CN1CCC(NC(=O)Nc2cccc(C(F)(F)F)c2)CC1
AC50 [1]: 1.58 µM [falling, partial curve, poor fit]

COc1cccc(OCc2cc(C(=O)N(Cc3ccccc3)CC3CC3)no2)c1
AC50 [1]: 11.2 µM [falling, single point]

O=C(Nc1ccccc1-c1ccccc1)C(=O)Nc1ccccc1-c1ccccc1
AC50 [1]: 6.31 µM [rising, single point]

FC(F)(F)c1nc2cc3nc4ccccc4[nH]c3cc2n1
AC50 [1]: 12.6 µM [falling, partial curve, poor fit]
AC50 [2]: 3.55 µM [rising, partial curve, poor fit]

CC1CN(c2nc3ccccc3nc2SCC(=O)Nc2ccc(F)cc2)CC(C)O1 (stereo unspecified)
AC50 [1]: 0.112 µM [falling, full curve, poor fit]

NS(=O)(=O)c1ccc(NC(=O)COC(=O)c2cc3ccccc3oc2=O)cc1
AC50 [1]: 7.94 µM [rising, partial curve, poor fit]

CC(=O)N/C(=C/c1ccccc1)C(=O)NC(Cc1ccccc1)C(=O)O (stereo unspecified)
AC50 [1]: 6.51 µM [rising, single point]

O=C(NCc1cccnc1)/C(=C/c1ccc(-c2ccc(Cl)cc2)o1)S(=O)(=O)c1ccccc1
AC50 [1]: 3.98 µM [falling, partial curve, poor fit]

O=C1NC2=C(C(=O)c3ccccc32)C(c2ccccc2)N1 (stereo unspecified)
AC50 [1]: 7.94 µM [falling, partial curve, poor fit]

Cc1c(-c2cccc(NC(=O)c3cccs3)c2)nc2ncccn12
AC50 [1]: 0.259 µM [falling, full curve, poor fit]

CCC1CCCCN1CCCNC(=O)C(C)n1nc(C)c2sc3ccccc3c2c1=O (stereo unspecified)
AC50 [1]: 35.5 µM [falling, single point]

C=CC[n+]1c(-c2ccc(Cl)cc2Cl)csc1Nc1ccc(NC(C)=O)cc1
AC50 [1]: 5.01 µM [rising, single point]

CCCC(=O)Nc1cccc(NC(=S)NC(=O)C(C)Oc2ccc(Cl)cc2Cl)c1 (stereo unspecified)
AC50 [1]: 1.46 µM [rising, partial curve, poor fit]

Nc1ccc(C(=O)Nc2ccccc2C(=O)O)cc1
AC50 [1]: 5.8 µM [falling, partial curve]

CO/N=C(/CNC(=O)c1ccccc1Cl)c1ccc(Cl)cc1
AC50 [1]: 1.41 µM [falling, full curve]

N#CC1(Cc2ccc(Cl)cc2)c2ccccc2C=CN1C(=O)c1ccccc1 (stereo unspecified)
AC50 [1]: 0.82 µM [rising, full curve, poor fit]

COc1cccc(/C=N/Nc2ccccc2C(=O)O)c1O
AC50 [1]: 2.24 µM [falling, full curve, poor fit]

CC(OC(=O)CSc1ccc([N+](=O)[O-])cc1)C(=O)NCc1ccccc1 (stereo unspecified)
AC50 [1]: 13 µM [falling, single point]

Cc1cnc(C(=O)OCC(=O)c2cccc3ccccc23)cn1
AC50 [1]: 23.1 µM [rising, single point]

CC(C)C(NC(=O)CSCc1ccc([N+](=O)[O-])cc1)C(C)C
AC50 [1]: 2.31 µM [falling, full curve, poor fit]

COC(=O)[C@H](CC(C)C)NC(=O)Nc1ccccc1F
AC50 [1]: 3.16 µM [rising, single point]

O=C(CCCn1ncn2c(cc3occc32)c1=O)NCc1ccccc1F
AC50 [1]: 7.08 µM [falling, full curve, poor fit]

O=C(C[C@@H]1C/C=C/CC[C@H](Cc2ccc(F)cc2)C(=O)OC[C@@H](Cc2ccccc2)NC1=O)N[C@H](CO)Cc1ccccc1
AC50 [1]: 13 µM [rising, partial curve, poor fit]

CCN1CCN(Cc2cc(=O)oc3ccc(Cl)cc23)CC1
AC50 [1]: 0.501 µM [falling, partial curve, poor fit]

FC(F)(F)c1nc2ccccc2nc1N/N=C/c1ccc(Cl)cc1
AC50 [1]: 1.12 µM [rising, full curve]

COC(=O)c1ccc(NC(=S)NCCc2ccccc2)cc1
AC50 [1]: 0.326 µM [falling, full curve]

c1ccc(-c2nc(NCc3cccnc3)c3oc4ccccc4c3n2)cc1
AC50 [1]: 3.16 µM [falling, full curve]

CN(C)c1nc(NCc2ccccc2)nc(N/N=C/c2cccc(Br)c2)n1
AC50 [1]: 0.355 µM [rising, full curve, poor fit]

CC(=O)Nc1ccc(N2CCC(C)CC2)c([N+](=O)[O-])c1
AC50 [1]: 15.8 µM [rising, partial curve, poor fit]

O=C(COc1ccc(Cl)cc1Cl)Nc1c(-c2cccs2)nc2ccccn12
AC50 [1]: 29.1 µM [rising, single point]

O=C(COc1ccccc1Cl)Nc1cc(NC(=O)COc2ccccc2Cl)cc(C(=O)O)c1
AC50 [1]: 2.82 µM [rising, partial curve, poor fit]

CCOc1cc(C(=O)OC(C)C(=O)Nc2ncc(Cl)cc2Cl)ccc1OCC(=O)N1CCOCC1 (stereo unspecified)
AC50 [1]: 4.61 µM [rising, full curve, poor fit]

O=Nc1onc(-c2ccc([N+](=O)[O-])cc2)c1NO
AC50 [1]: 17.8 µM [rising, single point]
AC50 [2]: 22.4 µM [falling, single point]

CS(=O)(=O)c1ccc(Cl)c(NC(=O)CSc2n[nH]c(-c3cccs3)n2)c1
AC50 [1]: 18.4 µM [rising, single point]

O=c1c2ccccc2ccc2ccccc12
AC50 [1]: 7.31 µM [rising, partial curve, poor fit]

Cc1noc(C)c1COc1ccc(C(=O)OCC(=O)Nc2ccc3c(c2)OCO3)cc1
AC50 [1]: 5.62 µM [rising, full curve, poor fit]

C=CCn1c(N)c(C(=O)OC(C)CC)c2nc3ccccc3nc21 (stereo unspecified)
AC50 [1]: 3.98 µM [falling, partial curve, poor fit]

CCOc1cc(N2CCOCC2)c(OCC)cc1NC(=O)C(C)Oc1ccccc1 (stereo unspecified)
AC50 [1]: 11.6 µM [rising, partial curve]

Cc1ccc(C(=O)N/C(=C\c2ccccc2)C(=O)OCc2ccccc2)cc1
AC50 [1]: 29.1 µM [falling, single point]

O=C(N/N=C\c1ccc(Sc2ccccn2)o1)c1cccc(Br)c1
AC50 [1]: 35.5 µM [falling, single point]

C/C(=N\NC(=O)c1cccc2ccccc12)c1cccnc1
AC50 [1]: 22.4 µM [falling, single point]

CCN(CC)c1ccc(/C=N/NC(=O)c2ccccn2)cc1
AC50 [1]: 10 µM [falling, partial curve]

Cn1sc(=O)c2cc(S(=O)(=O)NC3CC3)ccc21
AC50 [1]: 35.5 µM [rising, single point]
